Source: PubChem BioAssay AID743121 (NCATS, 2013)

Aim: 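Genes whose silencing strengthens cell killing by camptothecin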 (primary screen)
Cell system: MDA-MB-231 cells, a human breast cancer line
Knock-down reagent: single siRNA against human genes, 20 nM siRNA (0.8 pmol per well)
Timing: 120 h (drug added 48 h after transfection, read 72 h later)
Challenge: camptothecin 20 nM (about EC30) for 72 h; vehicle 0.1% DMSO in parallel plates
Measured: 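CellTiter-Glo ATP signal, scaled to control siRNA as percent viability; sensitisation given as log2 of untreated divided by camptothecin-treated viability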
Scale: log2 vehicle/camptothecin viability: higher = stronger sensitisation to camptothecin; viability with camptothecin: higher = more viable cells
Call rule: 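Active genes have an RSA gene-level p-value below 0.001, computed from the ratios of their separate siRNAs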
In all, the deposit lists about 26,000 reagents; below is a part drawn at random. 167 of all reagents (0.63%) were called active. 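Calls are per gene from RSA p-values that are not deposited; an individual active-marked siRNA can sensitise only weakly.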 Reagents against one gene are numbered here. Not all columns of the deposit are shown. No sequences are given here.

gene | reagent | log2 vehicle/camptothecin viability | viability with camptothecin (% of control) | outcome
GPR171 | 1 | -0.345 | 58 | inactive
GPR171 | 2 | -0.173 | 99.4 | inactive
GPR171 | 3 | 0.153 | 73.4 | inactive
GPR171 | 4 | 0.0222 | 36.6 | inactive
BAZ1A | 1 | 0.582 | 41.9 | inactive
BAZ1A | 2 | -0.271 | 136 | inactive
BAZ1A | 3 | -0.33 | 34.6 | inactive
BAZ1A | 4 | 0.109 | 98 | inactive
TAS2R1 | 1 | -0.195 | 98.6 | inactive
TAS2R1 | 2 | 0.0214 | 97 | inactive
TAS2R1 | 3 | 0.178 | 48.4 | inactive
TAS2R1 | 4 | 0.206 | 63.6 | inactive
STYXL1 | 1 | -0.259 | 93.6 | active
STYXL1 | 2 | 0.608 | 10.2 | active
STYXL1 | 3 | 1.62 | 29.1 | active
STYXL1 | 4 | 0.513 | 78.8 | active
MLLT6 | 1 | -0.311 | 28 | inactive
MLLT6 | 2 | -0.211 | 90 | inactive
MLLT6 | 3 | -0.469 | 55.8 | inactive
MLLT6 | 4 | 0.168 | 76.1 | inactive
OVCH1 | 1 | -0.48 | 118 | inactive
OVCH1 | 2 | -0.283 | 81.8 | inactive
OVCH1 | 3 | -0.509 | 73.1 | inactive
CHD1 | 1 | 0.0175 | 70.2 | inactive
CHD1 | 2 | -0.122 | 125 | inactive
CHD1 | 3 | -0.21 | 82.8 | inactive
CHD1 | 4 | -0.413 | 68.5 | inactive
FZR1 | 1 | -0.711 | 83 | inactive
FZR1 | 2 | 0.547 | 17.5 | inactive
FZR1 | 3 | 0.133 | 22.9 | inactive
FZR1 | 4 | -0.00934 | 98.7 | inactive

Entries listed so far whose gene name starts with S or s (4):
gene | reagent | log2 vehicle/camptothecin viability | viability with camptothecin (% of control) | outcome
STYXL1 | 1 | -0.259 | 93.6 | active
STYXL1 | 2 | 0.608 | 10.2 | active
STYXL1 | 3 | 1.62 | 29.1 | active
STYXL1 | 4 | 0.513 | 78.8 | active
